Test results: patent US8158632B2, “Pyrazolo[1,5-a]pyrimidines, processes, uses and compositions” (priority 2006, dated 2012)
Some entries share one result that the patent states for a list of compounds.

Experiment: Metabolic stability in human hepatocytes cytosolic fraction
Type: in vitro ADME
Conditions: after incubation for 60 and 120 min
Procedure: c) In Vitro Determination of Metabolic Stability in Human Hepatocytes Cytosolic Fraction
Compounds were dissolved in dimethyl sulfoxide to achieve an initial concentration of 10 mM. This stock solution was then diluted with solvent and buffer to obtain final assay concentration of 5 μM. Compounds were tested at a single concentration of 5 μM in duplicate incubating with 1.0 mg/mL of pooled human cytosol (obtained from Xenotech plc) at 37° C. Metabolism was assessed in the presence or absence of cofactors and measured as loss of parent compound by LC/MS analysis at 0, 60 and 120-minutes time points. Percentages of remaining parent compounds were then calculated.

Cc1nn2c(-c3ccc(F)c(N(C)S(C)(=O)=O)c3)ccnc2c1C#N [Preparative example 11, N-{2-fluoro-5-[3-cyano-2-methyl-pyrazolo[1,5-a]pyrimidin-7-yl]-phenyl}-N-methyl-methanesulfonamide]
higher percentage of the remaining parent compound compared with zaleplon and the prior art compound of WO 2005014596: 10-20%
